Test results taken from PubChem BioAssay AID1487 (National Center for Advancing Translational Sciences (NCATS), 2009).
This is one part of the list. These are further read-outs of the screen, such as a control signal, another cell line or another target. No call is given for them. Compounds called inactive in the main read-out are mostly missing here. Words in brackets tell the shape of the fitted curve; partial curves, single points and poor fits give uncertain potencies.

Test: qHTS Assay for Modulators of Lamin A Splicing
Settings: HeLa LMNA splicing GFP/RFP minigene ratio, 48 h
Outline: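 S3 HeLa cells stably expressing lamin A-EGFP splicing minigene plus DsRed2, 600 cells/well, 48 h compound exposure at 37C. Laser-scanning cytometry; analysed as GFP (500-530 nm)/RFP (575-640 nm) total intensity ratio; 0.5% DMSO vehicle.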

[1] = measured here: GFP splicing reporter channel
[2] = measured here: RFP viability control channel

| SMILES | AC50 [1] | AC50 [2] |
| --- | --- | --- |
| Cc1nc(SC(C)C)[nH]c(=O)c1Cc1ccccc1 | 11.2 µM [rising, partial curve] | – |
| O=C(Nc1ccccc1)N1N=C(c2ccc(F)cc2)CC1c1ccc(F)cc1 (stereo unspecified) | 12.6 µM [rising, single point] | – |
| CC(C)C(=O)Nc1cccc(NC(=S)NC(=O)C(c2ccccc2)c2ccccc2)c1 | 25.1 µM [falling, single point] | 20 µM [falling, partial curve] |
| CCCc1cc(=O)[nH]c(SCC(=O)c2ccc(S(=O)(=O)N3CCCC3)cc2)n1 | 31.6 µM [rising, single point] | 0.282 µM [falling, partial curve, poor fit] |
| CCS(=O)(=O)Nc1cccc(C2=NN(S(=O)(=O)c3ccc(C)cc3)C(c3cccs3)C2)c1 (stereo unspecified) | – | 17.8 µM [rising, single point] |
| COc1cccc(-n2c(C)nn(CCOc3ccccc3)c2=O)c1 | – | 15.8 µM [rising, single point] |
| Cc1ccsc1/C=C/c1ccc2cccc(O)c2n1 | – | 20 µM [rising, single point] |
| Cn1c(=O)n(CC(=O)Nc2ccccc2)c2ccccc21 | – | 17.8 µM [rising, partial curve] |
| O=C(CSc1nnc(SCc2ccc(Cl)cc2)s1)c1ccc2c(c1)OCO2 | – | 22.4 µM [rising, single point] |
| COc1ccccc1NC(=S)N(CCc1c(C)[nH]c2ccccc12)Cc1cccs1 | – | 10 µM [rising, single point] |
| COc1ccc(C(C)=O)cc1COC(=O)c1cccc(N(C)C)c1 | 5.62 µM [rising, single point] | – |
| CCCCC(=O)NC(=S)Nc1ccccc1N1CCCCC1 | 11.2 µM [rising, partial curve] | 15.8 µM [rising, single point] |
| CCCCC(=O)Nc1cccn2ncnc12 | 0.00794 µM [rising, full curve] | – |
| O=C(CCSc1ccc(Cl)cc1)c1cccs1 | – | 35.5 µM [rising, single point] |
| O=C(Nc1nccs1)c1ccc(COc2ccc(Cl)cc2)o1 | 31.6 µM [rising, single point] | – |
| Cc1cccc(-n2ccnc2SCC(=O)Nc2cccc3ccccc23)c1C | 35.5 µM [falling, single point] | – |
| COc1cc(NC(=O)c2ccc3c(=O)n(Cc4ccco4)c(=S)[nH]c3c2)cc(OC)c1OC | – | 25.1 µM [falling, single point] |
| CCn1c(=O)c(C(=O)NNS(=O)(=O)c2ccc(Cl)cc2)c(O)c2ccccc21 | – | 35.5 µM [rising, single point] |

3 entries already listed, ordered by molecular weight, low to high:

| SMILES | AC50 [1] | AC50 [2] |
| --- | --- | --- |
| Cc1ccsc1/C=C/c1ccc2cccc(O)c2n1 | – | 20 µM [rising, single point] |
| Cc1cccc(-n2ccnc2SCC(=O)Nc2cccc3ccccc23)c1C | 35.5 µM [falling, single point] | – |
| COc1cc(NC(=O)c2ccc3c(=O)n(Cc4ccco4)c(=S)[nH]c3c2)cc(OC)c1OC | – | 25.1 µM [falling, single point] |
